For the test, the target named is T1, Sgt1 (Suppressor of the G2 Allele of Skp1), full length (S. cerevisiae) (UniProt Q08446).
T1 sequence (chain, Atto488 (maleimide) label where it is the labeled species in aUC): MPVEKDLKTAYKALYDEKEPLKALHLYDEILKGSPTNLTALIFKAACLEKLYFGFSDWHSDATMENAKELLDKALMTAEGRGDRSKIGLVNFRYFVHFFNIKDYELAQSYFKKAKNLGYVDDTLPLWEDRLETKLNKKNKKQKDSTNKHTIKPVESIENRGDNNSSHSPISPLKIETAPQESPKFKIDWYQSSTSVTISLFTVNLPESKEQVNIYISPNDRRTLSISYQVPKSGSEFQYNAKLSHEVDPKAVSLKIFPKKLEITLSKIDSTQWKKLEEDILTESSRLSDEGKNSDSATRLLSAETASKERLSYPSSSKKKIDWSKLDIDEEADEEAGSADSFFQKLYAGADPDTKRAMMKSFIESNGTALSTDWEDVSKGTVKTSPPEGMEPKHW
In words: AUC.

Results are given in words; binding and its absence hold for the method and conditions named.

With Hsp70 (hHsp70), the binding entry is recorded as “no binding”.

The record behind these values is publication doi:10.1101/2025.04.24.648904.
